Measured values from publication PMC7819943, “Rice protein-binding microarrays: a tool to detect cis-acting elements near promoter regions in rice”.
Some of the results follow.

Target: T1, OsSMF1 (Oryza sativa, UniProt Q6ZLB0 1-436)
T1 sequence: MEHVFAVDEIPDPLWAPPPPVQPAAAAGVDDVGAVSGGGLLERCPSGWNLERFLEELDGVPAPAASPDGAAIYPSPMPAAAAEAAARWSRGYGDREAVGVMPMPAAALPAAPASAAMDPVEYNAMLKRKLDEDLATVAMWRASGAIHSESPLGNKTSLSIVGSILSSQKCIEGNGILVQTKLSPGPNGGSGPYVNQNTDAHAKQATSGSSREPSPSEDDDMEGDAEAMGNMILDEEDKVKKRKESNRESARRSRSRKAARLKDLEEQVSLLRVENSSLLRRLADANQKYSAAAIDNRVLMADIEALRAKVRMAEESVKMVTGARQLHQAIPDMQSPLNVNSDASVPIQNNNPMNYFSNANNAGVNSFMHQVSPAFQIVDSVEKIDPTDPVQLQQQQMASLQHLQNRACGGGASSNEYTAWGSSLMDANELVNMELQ
Experiment: protein-binding microarray (RPBM); PBS, 2% BSA, 51.3 ng/ul salmon testes DNA, 50 uM zinc acetate, 200 nM TF, 25 C, 1 h; high values mean tight binding
Settings: protein: recombinant; tags: N-terminal polyhistidine and DsRed monomer fusion (pET32a); chain copies: 2; label: CyDye5-dUTP incorporated in the synthesized complementary strand; 3' TTTTT single-stranded linker to array surface; dsDNA, one strand shown
How it was run: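 Binding signal is reported as fluorescence intensity per feature (arbitrary units) from an Axon 4000B scanner. Incubation used 200 nM of each Ni–NTA-purified, N-terminally polyhistidine- and DsRed-fused transcription factor from E. coli BL21-CodonPlus on a double-stranded custom Agilent array for 1 h at 25 °C, with 50 µM zinc acetate in the buffer, followed by washing.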

Sequence | binding signal
TCTTATCTGCTTCTTTCTTTAGCTTGCTAGCTACTAGTACCGGAGTCACCTAGTGCAG | 16800 fluorescence intensity (a.u.)
CTCCCATCGTCATCCCACGATCACCGATTCACTCTCCTAGCGGAGTCACCTAGTGCAG | 3300 fluorescence intensity (a.u.)
GACGAGTCGATCGATCTCGACTCCGTCACACCTGCTGCCGCGGAGTCACCTAGTGCAG | 3170 fluorescence intensity (a.u.)
GAAGCCACAGTCGGAGTTGTTCAAACATGACTGTTCCAGCCGGAGTCACCTAGTGCAG | 3660 fluorescence intensity (a.u.)
CCGTCTACCATGGTACCACCGCGCGCGTCACGTTGCAACGCGGAGTCACCTAGTGCAG | 3200 fluorescence intensity (a.u.)
TCGCGCGCGTCGCATGAATGTTCCACACGCCGATCATGACCGGAGTCACCTAGTGCAG | 3890 fluorescence intensity (a.u.)
TCTAAACTTGTACTCTAATAGTATTCAACAATCCACGTCACGGAGTCACCTAGTGCAG | 12100 fluorescence intensity (a.u.)
AGTGCCAGTTTTCCTCCTACGTAATCTAAGCTAGCCAGGTCGGAGTCACCTAGTGCAG | 3230 fluorescence intensity (a.u.)
AATTCAAGCATTGTATACGTCATTAGTCCGATTCTTTGTACGGAGTCACCTAGTGCAG | 5570 fluorescence intensity (a.u.)
CGGTTGTGCATTCTTAGGATGGCAAGAAGTAGAATGATATCGGAGTCACCTAGTGCAG | 33100 fluorescence intensity (a.u.)
AGGGTTGAGAGGTGAGTGGCGGCGGAAGGAATCCACAAGTCGGAGTCACCTAGTGCAG | 3720 fluorescence intensity (a.u.)
ACGGATCATGTATACTACTACCATGATGATGAGTCATTTTCGGAGTCACCTAGTGCAG | 6300 fluorescence intensity (a.u.)
ATCGGATTATCAGTTCCGGTCACAATTCGATCAATAAACGCGGAGTCACCTAGTGCAG | 12800 fluorescence intensity (a.u.)
GGTTAATTATATGTGTGCGCGCCATGTTTGTCATTGTTAACGGAGTCACCTAGTGCAG | 3330 fluorescence intensity (a.u.)
ACTTTAAACCCACGTTGTCAGTGGCTGCACGATGGGCCAACGGAGTCACCTAGTGCAG | 3340 fluorescence intensity (a.u.)
CGACACATTTTGCATTGATGACATGGTTAACTATACGACACGGAGTCACCTAGTGCAG | 5720 fluorescence intensity (a.u.)
CGTCCCGAGAGGAATGCGGTGACGCAGGCGTCGCCGTTATCGGAGTCACCTAGTGCAG | 4400 fluorescence intensity (a.u.)
GGAGGGCGTGTCGTGCGACGCCGCCACGGGGAGGGTCGTCCGGAGTCACCTAGTGCAG | 3170 fluorescence intensity (a.u.)
ATGTAACCCAACAAAAGGAGTGTAGAGTCATTGGCATACCCGGAGTCACCTAGTGCAG | 3910 fluorescence intensity (a.u.)
CACGACCACCTCTGAGGTCATTATTTCCATTTTGGCCCAGCGGAGTCACCTAGTGCAG | 25100 fluorescence intensity (a.u.)
GCACCATCCCAGGTCGCCATGACGTGGTCGCAGCTAGTTTCGGAGTCACCTAGTGCAG | 6370 fluorescence intensity (a.u.)
TGGAAATAATCAGTGCTTCTTCGTCATGAAGCCTACTTACCGGAGTCACCTAGTGCAG | 3540 fluorescence intensity (a.u.)
ATAAGTCGGTCTGACTGATTGCGTCATGTAACAAACATTCCGGAGTCACCTAGTGCAG | 9050 fluorescence intensity (a.u.)
ATCCTCCGCCGCCGCCTCACCTCCTCCGCCACCGCGCTCGCGGAGTCACCTAGTGCAG | 4020 fluorescence intensity (a.u.)
GCTACAACGCAGCCGTAACCCAGGTGTCTGAACAGGACCGCGGAGTCACCTAGTGCAG | 30200 fluorescence intensity (a.u.)
CGTCTTTTCGGCCCAATGGGCTAAACCGAACACGGTGGCGCGGAGTCACCTAGTGCAG | 3900 fluorescence intensity (a.u.)
CGCACCATGACGTCATCCAACCTCCTCCTCCTCCGCTTAACGGAGTCACCTAGTGCAG | 11400 fluorescence intensity (a.u.)

Sequence | binding signal
ACAACCCCTCTATATATACTTGTGGCTGTCCGATTTGAGGCGGAGTCACCTAGTGCAG | 3360 fluorescence intensity (a.u.)
GTCGCCGTCGCCGTCGTGCGCCGCGATCATCCTGACGCAGCGGAGTCACCTAGTGCAG | 4390 fluorescence intensity (a.u.)
TCCCTGGCACGTCTCCACAACCTTTGAAGTTCACCCGTGCCGGAGTCACCTAGTGCAG | 3760 fluorescence intensity (a.u.)
TTGTCCAGGTCCACTGCTGGAACTGCAAGCAGATGCCATCCGGAGTCACCTAGTGCAG | 22500 fluorescence intensity (a.u.)
AACCTTTTCGCGCGCTTTTGACATCATCCTTTTGCTTGGCCGGAGTCACCTAGTGCAG | 3480 fluorescence intensity (a.u.)
TTAGTGTGCGCGCATAAATAACTCTTTTGCGTGCACAGAACGGAGTCACCTAGTGCAG | 3400 fluorescence intensity (a.u.)
AGAATAAAATCAAGGAGGCCCGGATGAGCGCCACGTGGCGCGGAGTCACCTAGTGCAG | 24600 fluorescence intensity (a.u.)
TGATCGCTACAGAGGTTACGCTATACAACCGCAGTTAAGCCGGAGTCACCTAGTGCAG | 15700 fluorescence intensity (a.u.)
ACATGTGGCTGAAGTGTGCCTGCGTCGCCCGCCGTGTGCCCGGAGTCACCTAGTGCAG | 3180 fluorescence intensity (a.u.)
GCTGACAGCTGCTCCACATCGGCGCCCAAACCCTAACCTCCGGAGTCACCTAGTGCAG | 18000 fluorescence intensity (a.u.)
ATAGGAAGGGAAGCAACGGAGGAGGAGATCGGCTGGTGGTCGGAGTCACCTAGTGCAG | 7740 fluorescence intensity (a.u.)
ATACGACCCACACCCTTCTCTCCAACCTCAAGAAAACTATCGGAGTCACCTAGTGCAG | 29200 fluorescence intensity (a.u.)
GGGCCTCGCCCACGCCACGCACGCCAATCCAACCAGCGTCCGGAGTCACCTAGTGCAG | 6340 fluorescence intensity (a.u.)
CCACAAAGCAACAACATCACCACCACATCATCCCTCTACCCGGAGTCACCTAGTGCAG | 3420 fluorescence intensity (a.u.)
GTTGCGAGTGGAGCGGATCGGTGACGTGGCAATGGTTCTGCGGAGTCACCTAGTGCAG | 22300 fluorescence intensity (a.u.)
CTTGCACTCAACCACGCCTTGATCTCCCACACGCGAGCCACGGAGTCACCTAGTGCAG | 31400 fluorescence intensity (a.u.)
CTTGTTGTGTTCTACACTTGGTGATGCTGCTGCTTCTGCTCGGAGTCACCTAGTGCAG | 3690 fluorescence intensity (a.u.)
ATTTAGAACGCAGGAATTTCCACGTTTGATCGTAGACCCACGGAGTCACCTAGTGCAG | 3780 fluorescence intensity (a.u.)
GCATCGCAGCCGCTATCCGCGTGGGCATTCCGCCGAGCACCGGAGTCACCTAGTGCAG | 4280 fluorescence intensity (a.u.)
AGCTACGCTACGGCCCCACCCAACTGCTCTTCCTACGCGCCGGAGTCACCTAGTGCAG | 3160 fluorescence intensity (a.u.)
TCCCTTTCGGCCTCGCCTTCCTTCCTTGCGACTCAGGTCACGGAGTCACCTAGTGCAG | 3530 fluorescence intensity (a.u.)
TTAATTTATGGCGCTGGCCGTCAGCCGGTTGTGGTATGTTCGGAGTCACCTAGTGCAG | 3790 fluorescence intensity (a.u.)
ACTAAATGAGATCACTGATGACACAACACATATGACTCTTCGGAGTCACCTAGTGCAG | 4310 fluorescence intensity (a.u.)
TCTATACTGTTCCACGTCAAATTACCATTCTACCCTCCATCGGAGTCACCTAGTGCAG | 9250 fluorescence intensity (a.u.)
TTAATTAATTATGCTAAATGGATATAGTTTGATTCGATCACGGAGTCACCTAGTGCAG | 3440 fluorescence intensity (a.u.)
CGAGGCGAGCAAAGCGTGACGTGGCCACCTTCCCCGCCGCCGGAGTCACCTAGTGCAG | 32600 fluorescence intensity (a.u.)
TCACCTGTCCTCCTTGGTCCAACTATGTCGAGAATCGATGCGGAGTCACCTAGTGCAG | 3220 fluorescence intensity (a.u.)

As entered above:
Entry for AACCTTTTCGCGCGCTTTTGACATCATCCTTTTGCTTGGCCGGAGTCACCTAGTGCAG under binding signal: 3480 fluorescence intensity (a.u.)
Entry for TCCCTGGCACGTCTCCACAACCTTTGAAGTTCACCCGTGCCGGAGTCACCTAGTGCAG under binding signal: 3760 fluorescence intensity (a.u.)
